This passage reports AC50 results from PubChem BioAssay AID662 (National Center for Advancing Translational Sciences (NCATS), 2007).

The other results are listed elsewhere or left out. These are further read-outs of the screen, such as a control signal, another cell line or another target. No call is given for them. The list favours compounds with an active or inconclusive main result. The note in brackets gives the kind of curve behind each potency; many fits are weak.

This assay is described as follows: Cell signaling CRE-BLA (Fsk stim). To be noted: CHO CRE-bla reporter (cAMP response element driving beta-lactamase), forskolin EC10, beta-lactamase ratio; measured here: 460 nm blue channel. The method in brief:
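Modulation of forskolin-driven signalling is measured in CHO cells carrying a CRE-controlled beta-lactamase reporter. Cells are stimulated with EC10 NKH 477 in the presence of titrated compound for 3 h at 37 °C, then loaded with CCF4 for 2 h at room temperature.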
With `CN1CCc2cc3c(c4c2C1CC41CCC(=NO)CC1)OCO3` (centres undefined), the AC50 is 31.6 µM [falling, single point]. The same measure for `COc1ccc(N(C)C(=O)CCC(=O)Nc2ccc3nc(N4CCOCC4)cc(C)c3c2)c(OC)c1`: 10 µM [rising, single point]; for `COc1cc(-c2nn3c(-c4cccc(C)c4)nnc3s2)cc(OC)c1OC`: 1.58 µM [rising, full curve]; for `CCN(CC)S(=O)(=O)c1ccc2[nH]cc(C(=O)NCCC3=CCCCC3)c(=O)c2c1`: 25.1 µM [falling, single point]. The same measure for `c1ccc(-c2ccccc2-c2nc(-c3cccnc3)no2)cc1`: 10 µM [rising, partial curve]; for `CN(C1CCCCC1)S(=O)(=O)c1ccc(NC(=O)c2ccco2)cc1`: 6.31 µM [rising, partial curve]. For the molecule `Cc1cccc(Nc2nc(N)nc(CN3CCN(c4ccccc4)CC3)n2)c1`, the AC50 was 12.6 µM [falling, single point]. Consider `Cc1nc2c(cnn2-c2ccc(Cl)cc2)c(=O)n1-c1ccc2c(c1)OCCO2`, for which the AC50 was 3.98 µM [rising, single point]. As for `O=C(CN1CCOc2ccccc21)N1CCN(c2cccc(Cl)c2)CC1`, the AC50 is 15.8 µM [falling, single point]. The same measure for `N#CCSc1nc2ccc(N3CCCCC3)cc2c(=O)n1Cc1ccccc1`: 6.31 µM [rising, partial curve]. Then `COc1ccc(CC(=O)Nc2cc(C)c3c(=O)oc4ccccc4c3n2)cc1`, with 12.6 µM [rising, partial curve]. Then `O=C(Nc1ccccc1)N1CCN(c2nc3ccccc3s2)CC1`, with 10 µM [rising, partial curve]; and `CCC(=O)N1CCc2cc(S(=O)(=O)NCCC(=O)N3CCN(c4ccccn4)CC3)ccc21`, with 0.0251 µM [falling, full curve, poor fit]; and `COc1ccc(-c2nc(NC(=O)c3cc(C(C)(C)C)nn3C)sc2C)cc1`, with 25.1 µM [falling, single point].

With `CCOC(=O)c1c(NC(=O)c2nc3n(n2)C(C(F)F)CC(C)N3)sc2c1CCCC2` (centres undefined), the AC50 was 3.98 µM [rising, full curve]. `Cc1ccc2c(c1)c1ncnc(N3CCC4(CC3)OCCO4)c1n2C`: the AC50 was 15.8 µM [rising, single point]. Then `CN1CCN(c2nc(-c3ccccc3C(F)(F)F)nc3ccccc23)CC1`, with 6.31 µM [rising, partial curve]. Then `COC(=O)CSc1nc2cc(OC)ccc2cc1C#N`, with 12.6 µM [rising, single point]; and `COC(=O)CCSc1nccn1Cc1ccccc1`, with 6.31 µM [falling, partial curve]. Then `Cc1ccc(-c2nn3c(C)nnc3s2)cc1NC(=O)C(C)C`, with 10 µM [rising, partial curve]. In the case of `S=C(S)O[C@@H]1C[C@@H]2C[C@H]1[C@@H]1CCC[C@H]21`, the AC50 is 31.6 µM [falling, partial curve, poor fit].

With `COc1ccc(-c2nnc(SCC(=O)NC3CCCCC3)o2)cc1OC`, the AC50 was 10 µM [rising, partial curve]. Then `Cc1c(C(=O)NCc2ccc3c(c2)OCO3)oc2ccc(S(=O)(=O)N3CCC(C)CC3)cc12`, with 10 µM [falling, partial curve]; and `COc1ccc(-c2noc(-c3cc(C)cc(C)c3)n2)cc1OC`, with 2.51 µM [rising, full curve]. Take `N/C(=N\O)c1ccc(NC(=O)c2ccc(Br)o2)cc1`: the AC50 was 6.31 µM [falling, full curve]. Then `OCCN(CC(O)Cn1ccc2ccccc21)CC(O)Cn1ccc2ccccc21` (centres undefined), with 20 µM [falling, partial curve, poor fit]; and `C=CCn1c(SCC(=O)Nc2c(C)cccc2C)nnc1-c1cnccn1`, with 25.1 µM [rising, single point]; and `N#Cc1ccccc1-c1ccc2ncnc(NCCN3CCOCC3)c2c1`, with 10 µM [rising, partial curve]. Then `COCCn1c(=O)c(-c2ccc(OC)cc2)nc2cnc(OC)nc21`, with 12.6 µM [rising, partial curve]; and `CCCn1c(SCC(=O)Nc2sc(C)c(C)c2C(=O)OCC)nc2c1c(=O)n(C)c(=O)n2C`, with 1 µM [falling, single point]. The same measure for `COC(=O)c1ccc(OC)c(CSc2nnc(COc3ccccc3)o2)c1`: 12.6 µM [rising, single point]. `CC1(C)C(c2ccccc2)=[N+]([O-])CN1O`: the AC50 was 0.794 µM [falling, full curve].

In the case of `N#Cc1ccsc1NC(=O)COC(=O)CCCSc1nc2ccccc2s1`, the AC50 is 0.2 µM [falling, full curve, poor fit]. The same measure for `CC(=O)Nc1ccc(NC(=O)c2cccc(C(=O)OC(C)C)n2)cc1`: 25.1 µM [rising, single point]. Then `COC(=O)c1cnn2c3c(c(C)nc12)CCCC3`, with 10 µM [rising, single point]; and `Cc1sc2nc(CN3CCOCC3)nc(Oc3ccc(NC(=O)c4ccco4)cc3)c2c1C`, with 3.16 µM [rising, full curve]. Take `Fc1ccccc1CSc1ncnc2c1oc1ccccc12`: the AC50 is 10 µM [falling, partial curve]. The same measure for `COc1ccc(CNC(=O)C(C)NC(=O)c2cc3ccccc3o2)cc1` (centres undefined): 0.1 µM [falling, full curve]; for `CCCc1cc(=O)n2[nH]c(NCc3ccccc3Cl)nc2n1`: 31.6 µM [falling, single point]; for `Cc1cccc(CNc2ncncc2-c2ccc3c(c2)OCO3)c1`: 10 µM [rising, partial curve].

In the case of `O=C(CSc1ncccn1)NCc1ccccc1`, the AC50 was 0.398 µM [falling, full curve]. The same measure for `CCCCCC(=O)Nc1cc(N(C)C)nc2ccccc12`: 0.398 µM [rising, full curve, poor fit]; for `O=C(CCC(=O)N1CCCC1)Nc1nnc(C2CCCCC2)s1`: 5.01 µM [falling, single point]; for `COCCn1c(=O)c(-c2cccc(F)c2)nc2cncnc21`: 12.6 µM [rising, partial curve].

The AC50 is the concentration at which the activity in the assay is half-maximal.
